Data as given in paper PMC12182300, “Biochemical impact of p300-mediated acetylation of replication protein A: Implications for DNA metabolic pathway choice” (The Journal of Biological Chemistry, 2025).
For at least one entry, the source does not settle the construct or the ends of the probe. For part of these data: A negative result means that nothing was seen under these conditions. For part of these data: Weaker means in comparison with the reference protein, sequence or condition of that experiment. For part of these data: At least one verdict was read from the data and is not stated in words by the source. For part of these data: The direction of at least one scale is not stated here.

Chains of the proteins cited; added tags and fusions are not shown. A change or cut given only in a name is not applied to a line headed by its entry. Chains listed by the source or under a name are the forms on record and can include a tag or linker. Residues count along the entry.
UniProt P27694, 1-180: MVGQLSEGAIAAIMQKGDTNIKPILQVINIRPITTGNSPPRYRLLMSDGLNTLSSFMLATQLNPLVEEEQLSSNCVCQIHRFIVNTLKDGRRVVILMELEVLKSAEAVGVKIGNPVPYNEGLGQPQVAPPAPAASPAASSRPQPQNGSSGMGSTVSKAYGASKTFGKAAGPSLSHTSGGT
UniProt P27694, 1-441: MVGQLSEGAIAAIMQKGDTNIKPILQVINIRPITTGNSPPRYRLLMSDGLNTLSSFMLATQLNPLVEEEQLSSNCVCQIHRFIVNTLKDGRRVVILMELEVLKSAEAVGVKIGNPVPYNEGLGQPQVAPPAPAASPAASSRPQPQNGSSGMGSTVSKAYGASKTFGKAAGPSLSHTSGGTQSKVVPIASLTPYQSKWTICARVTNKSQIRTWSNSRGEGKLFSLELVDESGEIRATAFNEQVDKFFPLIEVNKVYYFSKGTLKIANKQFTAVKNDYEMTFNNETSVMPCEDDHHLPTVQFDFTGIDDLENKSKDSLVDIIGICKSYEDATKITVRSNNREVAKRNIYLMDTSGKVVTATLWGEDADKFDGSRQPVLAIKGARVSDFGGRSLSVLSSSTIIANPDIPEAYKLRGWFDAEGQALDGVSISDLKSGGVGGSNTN
UniProt Q09472: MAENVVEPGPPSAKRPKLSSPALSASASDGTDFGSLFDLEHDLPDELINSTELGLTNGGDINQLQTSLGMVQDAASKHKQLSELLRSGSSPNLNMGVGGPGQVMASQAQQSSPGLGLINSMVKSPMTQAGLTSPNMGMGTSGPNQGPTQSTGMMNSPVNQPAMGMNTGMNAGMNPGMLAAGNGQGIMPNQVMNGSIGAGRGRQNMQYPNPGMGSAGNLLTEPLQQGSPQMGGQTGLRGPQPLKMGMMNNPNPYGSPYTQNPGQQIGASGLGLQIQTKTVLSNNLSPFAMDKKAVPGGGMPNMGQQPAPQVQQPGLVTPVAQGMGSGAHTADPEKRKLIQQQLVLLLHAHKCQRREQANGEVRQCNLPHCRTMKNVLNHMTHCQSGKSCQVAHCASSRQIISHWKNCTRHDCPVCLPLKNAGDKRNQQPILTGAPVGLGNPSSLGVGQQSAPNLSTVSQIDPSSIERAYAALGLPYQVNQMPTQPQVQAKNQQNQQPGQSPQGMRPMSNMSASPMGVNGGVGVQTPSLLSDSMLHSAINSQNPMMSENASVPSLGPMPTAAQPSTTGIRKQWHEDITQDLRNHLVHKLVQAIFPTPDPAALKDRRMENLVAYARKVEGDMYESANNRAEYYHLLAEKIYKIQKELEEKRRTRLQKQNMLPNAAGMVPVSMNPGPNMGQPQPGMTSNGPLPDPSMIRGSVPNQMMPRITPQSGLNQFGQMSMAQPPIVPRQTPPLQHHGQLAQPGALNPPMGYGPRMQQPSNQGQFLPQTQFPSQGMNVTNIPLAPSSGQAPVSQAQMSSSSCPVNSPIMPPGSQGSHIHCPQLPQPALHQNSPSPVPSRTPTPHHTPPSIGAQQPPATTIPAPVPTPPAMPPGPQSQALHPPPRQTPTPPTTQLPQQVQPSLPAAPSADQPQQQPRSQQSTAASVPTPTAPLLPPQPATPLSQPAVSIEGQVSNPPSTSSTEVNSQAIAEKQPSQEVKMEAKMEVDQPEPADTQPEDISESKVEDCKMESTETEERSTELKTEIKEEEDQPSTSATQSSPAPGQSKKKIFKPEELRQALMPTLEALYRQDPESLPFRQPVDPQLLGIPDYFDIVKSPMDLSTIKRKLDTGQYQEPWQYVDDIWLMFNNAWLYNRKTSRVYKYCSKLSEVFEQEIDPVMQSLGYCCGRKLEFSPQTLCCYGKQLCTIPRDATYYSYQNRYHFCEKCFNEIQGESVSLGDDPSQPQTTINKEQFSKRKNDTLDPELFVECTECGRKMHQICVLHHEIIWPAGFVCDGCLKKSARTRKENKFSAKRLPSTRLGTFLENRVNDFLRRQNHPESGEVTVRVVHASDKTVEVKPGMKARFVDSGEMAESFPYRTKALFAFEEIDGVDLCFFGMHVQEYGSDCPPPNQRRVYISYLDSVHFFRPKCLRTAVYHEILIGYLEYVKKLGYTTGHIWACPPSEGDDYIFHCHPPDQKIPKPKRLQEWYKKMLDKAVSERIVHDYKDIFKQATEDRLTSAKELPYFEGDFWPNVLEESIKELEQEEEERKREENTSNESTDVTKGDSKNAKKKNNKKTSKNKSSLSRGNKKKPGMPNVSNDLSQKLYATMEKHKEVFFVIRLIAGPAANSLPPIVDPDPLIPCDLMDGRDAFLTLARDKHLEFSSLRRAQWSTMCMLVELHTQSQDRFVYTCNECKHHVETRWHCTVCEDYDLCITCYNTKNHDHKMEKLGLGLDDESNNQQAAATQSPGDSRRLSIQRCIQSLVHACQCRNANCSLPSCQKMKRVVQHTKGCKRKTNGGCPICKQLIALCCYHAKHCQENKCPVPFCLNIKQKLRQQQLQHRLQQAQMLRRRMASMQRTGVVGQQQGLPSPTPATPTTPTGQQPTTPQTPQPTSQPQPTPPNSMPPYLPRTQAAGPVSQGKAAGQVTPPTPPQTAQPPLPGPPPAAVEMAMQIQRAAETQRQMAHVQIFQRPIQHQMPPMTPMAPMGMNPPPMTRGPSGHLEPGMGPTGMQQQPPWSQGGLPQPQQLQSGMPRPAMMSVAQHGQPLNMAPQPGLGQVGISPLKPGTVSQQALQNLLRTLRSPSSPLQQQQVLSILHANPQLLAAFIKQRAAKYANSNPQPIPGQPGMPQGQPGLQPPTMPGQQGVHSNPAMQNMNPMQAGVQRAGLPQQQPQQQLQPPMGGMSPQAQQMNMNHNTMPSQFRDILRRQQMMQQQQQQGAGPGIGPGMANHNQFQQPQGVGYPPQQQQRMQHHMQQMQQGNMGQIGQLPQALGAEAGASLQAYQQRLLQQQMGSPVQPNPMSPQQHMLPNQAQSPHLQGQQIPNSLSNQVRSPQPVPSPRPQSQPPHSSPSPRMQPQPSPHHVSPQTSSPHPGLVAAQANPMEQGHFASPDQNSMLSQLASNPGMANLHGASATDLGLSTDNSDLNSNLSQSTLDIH
Ac-RPA (p300-acetylated RPA heterotrimer) (Homo sapiens), one chain, as listed by the source, chain 1 of 3: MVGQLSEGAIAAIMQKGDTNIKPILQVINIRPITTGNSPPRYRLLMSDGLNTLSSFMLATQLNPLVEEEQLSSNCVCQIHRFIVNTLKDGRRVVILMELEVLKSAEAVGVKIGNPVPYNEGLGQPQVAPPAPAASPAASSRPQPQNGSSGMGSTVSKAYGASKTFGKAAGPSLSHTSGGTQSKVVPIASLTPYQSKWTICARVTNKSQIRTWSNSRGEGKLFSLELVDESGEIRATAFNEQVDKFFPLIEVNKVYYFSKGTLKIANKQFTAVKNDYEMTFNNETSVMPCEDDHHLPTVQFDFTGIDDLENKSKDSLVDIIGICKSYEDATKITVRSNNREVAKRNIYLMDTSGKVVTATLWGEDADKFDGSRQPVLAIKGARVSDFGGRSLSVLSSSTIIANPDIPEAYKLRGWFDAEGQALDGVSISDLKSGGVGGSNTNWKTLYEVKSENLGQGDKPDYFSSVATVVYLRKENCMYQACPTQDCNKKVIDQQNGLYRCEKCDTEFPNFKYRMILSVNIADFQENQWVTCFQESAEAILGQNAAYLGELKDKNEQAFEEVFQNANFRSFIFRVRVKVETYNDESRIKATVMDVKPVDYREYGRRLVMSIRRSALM
Ac-RPA (p300-acetylated RPA heterotrimer) (Homo sapiens), one chain, as listed by the source, chain 3 of 3: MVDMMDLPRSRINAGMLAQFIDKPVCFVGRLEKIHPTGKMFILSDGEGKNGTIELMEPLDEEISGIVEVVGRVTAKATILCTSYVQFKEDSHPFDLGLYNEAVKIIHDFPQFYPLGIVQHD
Ac-RPA (p300-acetylated RPA heterotrimer) (Homo sapiens), one chain, as listed by the source, chain 2 of 3: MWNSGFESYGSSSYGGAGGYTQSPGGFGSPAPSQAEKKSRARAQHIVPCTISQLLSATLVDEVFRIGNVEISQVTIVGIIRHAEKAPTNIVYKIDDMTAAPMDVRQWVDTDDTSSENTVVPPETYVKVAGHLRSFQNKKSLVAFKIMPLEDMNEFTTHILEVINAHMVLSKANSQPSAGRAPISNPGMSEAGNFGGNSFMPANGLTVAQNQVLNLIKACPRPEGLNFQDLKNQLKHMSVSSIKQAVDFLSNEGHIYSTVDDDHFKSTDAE

How the values were obtained:
[1] = tested on: Ac-RPA (p300-acetylated RPA heterotrimer) (Homo sapiens); assay: EMSA; details: EMSA: 50 mM Tris-HCl pH 8.0, 2 mM DTT, 30 mM NaCl, 0.1 mg/ml BSA, 5% glycerol, 10 min 37 °C, FEN1/RPA flap EMSA: same with 20 mM NaCl, 20 uM EDTA, recombinant protein
[2] = tested on: Um-RPA (unmodified RPA heterotrimer) (Homo sapiens); assay: EMSA; details: EMSA: 50 mM Tris-HCl pH 8.0, 2 mM DTT, 30 mM NaCl, 0.1 mg/ml BSA, 5% glycerol, 10 min 37 °C, FEN1/RPA flap EMSA: same with 20 mM NaCl, 20 uM EDTA, recombinant protein
[3] = target: RPA1 A1/A2, acetylated (Homo sapiens) (UniProt P27694); assay: EMSA; details: increased versus unmodified; EMSA: 50 mM Tris-HCl pH 8.0, 2 mM DTT, 30 mM NaCl, 0.1 mg/ml BSA, 5% glycerol, 10 min 37 °C; FEN1/RPA flap EMSA: same with 20 mM NaCl, 20 uM EDTA; recombinant protein; protein details: C-terminal His6; label: 5'-TAMRA; single-stranded DNA
[4] = target: RPA1 A1/A2, unmodified (Homo sapiens) (UniProt P27694); assay: EMSA; details: less than acetylated form; EMSA: 50 mM Tris-HCl pH 8.0, 2 mM DTT, 30 mM NaCl, 0.1 mg/ml BSA, 5% glycerol, 10 min 37 °C; FEN1/RPA flap EMSA: same with 20 mM NaCl, 20 uM EDTA; recombinant protein; protein details: C-terminal His6; label: 5'-TAMRA; single-stranded DNA
[5] = target: RPA1 DBD-F, acetylated (Homo sapiens) (UniProt P27694); assay: EMSA; details: 25-150 nM protein, 25 nM DNA; EMSA: 50 mM Tris-HCl pH 8.0, 2 mM DTT, 30 mM NaCl, 0.1 mg/ml BSA, 5% glycerol, 10 min 37 °C; FEN1/RPA flap EMSA: same with 20 mM NaCl, 20 uM EDTA; recombinant protein; protein details: C-terminal His6; label: 5'-TAMRA; single-stranded DNA
[6] = target: RPA1 FAB, acetylated (Homo sapiens) (UniProt P27694); assay: EMSA; details: increased versus unmodified; EMSA: 50 mM Tris-HCl pH 8.0, 2 mM DTT, 30 mM NaCl, 0.1 mg/ml BSA, 5% glycerol, 10 min 37 °C; FEN1/RPA flap EMSA: same with 20 mM NaCl, 20 uM EDTA; recombinant protein; protein details: C-terminal His6; label: 5'-TAMRA; single-stranded DNA
[7] = target: RPA1 FAB, unmodified (Homo sapiens) (UniProt P27694); assay: EMSA; details: less than acetylated form; EMSA: 50 mM Tris-HCl pH 8.0, 2 mM DTT, 30 mM NaCl, 0.1 mg/ml BSA, 5% glycerol, 10 min 37 °C; FEN1/RPA flap EMSA: same with 20 mM NaCl, 20 uM EDTA; recombinant protein; protein details: C-terminal His6; label: 5'-TAMRA; single-stranded DNA
[8] = tested on: ΔF-RPA, acetylated (Homo sapiens); assay: EMSA; details: increased versus unmodified; EMSA: 50 mM Tris-HCl pH 8.0, 2 mM DTT, 30 mM NaCl, 0.1 mg/ml BSA, 5% glycerol, 10 min 37 °C; FEN1/RPA flap EMSA: same with 20 mM NaCl, 20 uM EDTA; recombinant protein; protein details: C-terminal His6; label: 5'-TAMRA; single-stranded DNA
[9] = tested on: ΔF-RPA, unmodified (Homo sapiens); assay: EMSA; details: less than acetylated form; EMSA: 50 mM Tris-HCl pH 8.0, 2 mM DTT, 30 mM NaCl, 0.1 mg/ml BSA, 5% glycerol, 10 min 37 °C; FEN1/RPA flap EMSA: same with 20 mM NaCl, 20 uM EDTA; recombinant protein; protein details: C-terminal His6; label: 5'-TAMRA; single-stranded DNA
[10] = tested on: Ac-RPA (p300-acetylated RPA heterotrimer) (Homo sapiens); assay: BLI; details: KD only in Fig. 4D, lower KD than Um-RPA, BLI: 1X HAT buffer, 31.25-250 nM RPA, recombinant protein, single-stranded DNA
[11] = tested on: Um-RPA (unmodified RPA heterotrimer) (Homo sapiens); assay: BLI; details: BLI: 1X HAT buffer, 31.25-250 nM RPA, recombinant protein, single-stranded DNA
[12] = tested on: Ac-RPA (p300-acetylated RPA heterotrimer) (Homo sapiens); assay: competition EMSA; details: EMSA: 50 mM Tris-HCl pH 8.0, 2 mM DTT, 30 mM NaCl, 0.1 mg/ml BSA, 5% glycerol, 10 min 37 °C, FEN1/RPA flap EMSA: same with 20 mM NaCl, 20 uM EDTA, recombinant protein, single-stranded DNA; for binding signal (% dissociated at 1000-fold competitor): Um-RPA fully displaced; for binding signal (% dissociated at 500-fold competitor): unlabeled 28 nt competitor
[13] = tested on: Um-RPA (unmodified RPA heterotrimer) (Homo sapiens); assay: competition EMSA; details: unlabeled 28 nt competitor, EMSA: 50 mM Tris-HCl pH 8.0, 2 mM DTT, 30 mM NaCl, 0.1 mg/ml BSA, 5% glycerol, 10 min 37 °C, FEN1/RPA flap EMSA: same with 20 mM NaCl, 20 uM EDTA, recombinant protein, single-stranded DNA
p300 = p300 (UniProt Q09472); assay: EMSA; details: p300 alone; EMSA: 50 mM Tris-HCl pH 8.0, 2 mM DTT, 30 mM NaCl, 0.1 mg/ml BSA, 5% glycerol, 10 min 37 °C; FEN1/RPA flap EMSA: same with 20 mM NaCl, 20 uM EDTA; recombinant protein; label: 3'-biotin (BLI), 5'-TAMRA (EMSA); single-stranded DNA
[14] = 50 nM RPA alone, 5 nM DNA, label: IR700 on 5' end (Fig. 8), folded or branched DNA
[15] = 12.5 nM RPA, 1.25 nM DNA, 5% DMSO, room temperature, label: 32P, single-stranded DNA
[16] = label: 3'-biotin (BLI), 5'-32P (EMSA)
[17] = with p300, no acetyl-CoA, higher KD than Ac-RPA
[18] = 5-25 nM RPA, better than Um-RPA, single-stranded DNA

Sequence: GCCCAGTCACGTCGTTGTAAAACGGGTCGTGACTGGGAAAACCCTGGCG / TTAGTTAATTCACTGGCCGTCGTTTTACAACGACGTGACTGGG / CGCCAGGGTTTTCCCAGTCACGACCA [20 nt double flap (U26:D43:T49)]
- binding signal (% bound (complete)) [1, 14]: 100
- binding signal [2, 14]: 53 % bound

Sequence: GGAGACCGAAGAGGAAAAGAAGGAGAGAGG [JJ.30 (30 nt)]
- binding signal [1, 15]: 77 % bound
- binding signal [2, 15]: 17 % bound

Sequence: TTCACGAGATTTACTTATTTCACTGCGGCT [LB.30 (30 nt)]
- binding result [3]: binds
- binding result [4]: binds more weakly
- binding result [5]: no binding
- binding result [6]: binds
- binding result [7]: binds more weakly
- binding result [8]: binds
- binding result [9]: binds more weakly

Sequence: TTCACGCCTGTTAGTTAATT [LB.20 (20 nt)]
- binding result [10, 16]: binds
- binding result ([11]; KD only in Fig. 4D, weaker than Ac-RPA, largest fold difference, label: 3'-biotin (BLI), 5'-32P (EMSA)): binds more weakly
- binding result ([11]; with p300, no acetyl-CoA, higher KD than Ac-RPA, label: 3'-biotin (BLI), 5'-32P (EMSA)): binds more weakly
- binding result ([1]; 5-25 nM RPA, highest fold stimulation, label: 3'-biotin (BLI), 5'-32P (EMSA), single-stranded DNA): binds
- binding result ([2]; 5-25 nM RPA, smeared, dynamic binding, label: 3'-biotin (BLI), 5'-32P (EMSA), single-stranded DNA): binds more weakly

Sequence: TTCACGCCTGTTAGTTAATTCACT [LB.24 (24 nt)]
- binding result [10]: binds
- binding result ([11]; KD only in Fig. 4D, weaker than Ac-RPA): binds more weakly
- binding result [11, 17]: binds more weakly
- binding result [1, 18]: binds
- binding result ([2]; 5-25 nM RPA, smeared, dynamic binding, single-stranded DNA): binds more weakly
- binding signal (% dissociated at 1000-fold competitor) ([12]; 100 nM RPA): 77
- binding signal (% dissociated at 500-fold competitor) ([12]; 100 nM RPA): 61
- binding signal (% dissociated at 500-fold competitor) ([13]; 100 nM RPA): 80

Sequence: TTCACGCCTGTTAGTTAATTCACTGGCC [LB.28 (28 nt)]
- binding result [10]: binds
- binding result [11, 17]: binds
- binding result [1, 18]: binds
- binding signal (% dissociated at 1000-fold competitor) ([12]; 50 nM RPA): 60
- binding signal (% dissociated at 500-fold competitor) ([12]; 50 nM RPA): 33
- binding signal (% dissociated at 500-fold competitor) ([13]; 50 nM RPA): 80

Sequence: TTCACGCCTGTTAGTTAATTCACTGGCCGTAC [LB.32 (32 nt)]
- binding result [10, 16]: binds
- binding result ([1]; 5-25 nM RPA, better than Um-RPA, label: 3'-biotin (BLI), 5'-32P (EMSA), single-stranded DNA): binds

Sequence: TTCACTATAACTACCTAATCTTCTGGCCGTACTGAACTACTGACA [LB.45 (45 nt)]
- binding result ([10]; label: 3'-biotin (BLI), 5'-TAMRA (EMSA)): binds
- binding result ([1]; better than Um-RPA, label: 3'-biotin (BLI), 5'-TAMRA (EMSA), single-stranded DNA): binds
- binding result ([2]; label: 3'-biotin (BLI), 5'-TAMRA (EMSA), single-stranded DNA): binds
- binding result (p300): no binding
